Source: publication doi:10.1101/067827 (bioRxiv, 2016)
Results are given in words; binding and its absence hold for the method and conditions named. For some of these results: Binding seen in cells or lysates may run through a third protein. Some results given as binding are weak or reduced against the parent protein; the word gives no strength. For some of these results: Tags and fused reporters may be left off the sequences shown.

T1: GTSE1 (endogenous, mitotic U2OS cells) (human (endogenous in U2OS)) (UniProt Q9NYZ3)
T1 sequence: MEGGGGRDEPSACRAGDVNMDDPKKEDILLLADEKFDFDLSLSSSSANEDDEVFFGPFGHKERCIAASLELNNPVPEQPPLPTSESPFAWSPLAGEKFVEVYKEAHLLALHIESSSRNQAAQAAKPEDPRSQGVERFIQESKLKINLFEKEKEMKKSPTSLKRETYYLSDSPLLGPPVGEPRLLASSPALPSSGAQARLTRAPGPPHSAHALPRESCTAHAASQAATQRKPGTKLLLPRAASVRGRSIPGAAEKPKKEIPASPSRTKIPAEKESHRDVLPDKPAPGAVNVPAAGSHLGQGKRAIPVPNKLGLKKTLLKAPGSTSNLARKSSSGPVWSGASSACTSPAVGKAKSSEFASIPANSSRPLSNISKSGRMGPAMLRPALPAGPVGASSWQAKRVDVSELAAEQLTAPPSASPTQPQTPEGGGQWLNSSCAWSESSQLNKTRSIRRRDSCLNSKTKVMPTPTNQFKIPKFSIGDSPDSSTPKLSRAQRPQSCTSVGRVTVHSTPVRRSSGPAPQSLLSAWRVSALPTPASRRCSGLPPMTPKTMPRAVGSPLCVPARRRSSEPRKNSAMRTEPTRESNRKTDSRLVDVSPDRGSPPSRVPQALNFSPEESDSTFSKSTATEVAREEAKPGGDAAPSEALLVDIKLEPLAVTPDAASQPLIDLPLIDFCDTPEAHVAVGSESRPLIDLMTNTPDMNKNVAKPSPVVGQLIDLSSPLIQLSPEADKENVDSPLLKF

T2: NFLAP-GTSE1 (BAC-expressed, GFP-tagged GTSE1) (human) (UniProt Q9NYZ3)
T2 sequence: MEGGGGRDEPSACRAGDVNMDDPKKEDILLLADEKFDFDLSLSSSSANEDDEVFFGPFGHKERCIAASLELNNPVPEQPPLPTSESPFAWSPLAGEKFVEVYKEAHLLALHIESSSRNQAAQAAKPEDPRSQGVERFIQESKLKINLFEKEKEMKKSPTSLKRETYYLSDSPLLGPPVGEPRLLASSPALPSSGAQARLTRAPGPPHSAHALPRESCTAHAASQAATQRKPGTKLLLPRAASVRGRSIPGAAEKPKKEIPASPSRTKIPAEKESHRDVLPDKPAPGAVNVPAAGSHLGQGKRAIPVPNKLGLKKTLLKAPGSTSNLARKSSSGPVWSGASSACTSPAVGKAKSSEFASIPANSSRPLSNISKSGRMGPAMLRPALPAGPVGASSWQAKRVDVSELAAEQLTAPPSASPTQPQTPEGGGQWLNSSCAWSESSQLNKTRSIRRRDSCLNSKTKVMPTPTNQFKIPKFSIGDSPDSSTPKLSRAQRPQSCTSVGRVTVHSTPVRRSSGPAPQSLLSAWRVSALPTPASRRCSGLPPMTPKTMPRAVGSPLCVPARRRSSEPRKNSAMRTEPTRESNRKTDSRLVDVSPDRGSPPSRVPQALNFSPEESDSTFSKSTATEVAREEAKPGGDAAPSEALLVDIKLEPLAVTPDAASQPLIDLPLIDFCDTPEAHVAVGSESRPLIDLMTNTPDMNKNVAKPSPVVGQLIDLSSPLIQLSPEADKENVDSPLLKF

T3: GST-hGTSE1 1-460 (N-terminal fragment) (human) (UniProt Q9NYZ3)
T3 sequence: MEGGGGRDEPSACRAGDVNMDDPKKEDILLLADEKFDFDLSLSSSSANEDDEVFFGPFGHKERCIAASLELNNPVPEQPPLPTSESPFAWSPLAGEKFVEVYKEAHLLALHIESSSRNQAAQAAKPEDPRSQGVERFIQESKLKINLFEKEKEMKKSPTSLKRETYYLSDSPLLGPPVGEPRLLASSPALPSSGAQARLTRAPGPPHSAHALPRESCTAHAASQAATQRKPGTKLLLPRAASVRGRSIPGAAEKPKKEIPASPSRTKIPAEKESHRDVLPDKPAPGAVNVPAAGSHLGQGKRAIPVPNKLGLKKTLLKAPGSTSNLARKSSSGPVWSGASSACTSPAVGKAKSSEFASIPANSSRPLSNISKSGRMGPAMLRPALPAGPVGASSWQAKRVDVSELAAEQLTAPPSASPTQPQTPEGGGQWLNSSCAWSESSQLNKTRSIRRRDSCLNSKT

T4: GST-hGTSE1 463-739 (C-terminal fragment) (human) (UniProt Q9NYZ3)
T4 sequence: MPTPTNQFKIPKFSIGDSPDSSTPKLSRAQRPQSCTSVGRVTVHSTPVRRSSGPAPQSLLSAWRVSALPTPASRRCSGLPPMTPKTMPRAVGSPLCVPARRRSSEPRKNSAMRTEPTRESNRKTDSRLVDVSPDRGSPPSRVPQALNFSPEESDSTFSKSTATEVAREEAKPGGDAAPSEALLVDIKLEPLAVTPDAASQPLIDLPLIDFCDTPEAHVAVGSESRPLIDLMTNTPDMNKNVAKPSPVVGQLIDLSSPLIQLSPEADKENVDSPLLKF


Legend:
[1] = biological target: T1, GTSE1 (endogenous, mitotic U2OS cells) (human (endogenous in U2OS)); assay: co-IP
[2] = biological target: T2, NFLAP-GTSE1 (BAC-expressed, GFP-tagged GTSE1) (human); assay: co-IP
[3] = biological target: T3, GST-hGTSE1 1-460 (N-terminal fragment) (human); assay: pull-down
[4] = biological target: T4, GST-hGTSE1 463-739 (C-terminal fragment) (human); assay: pull-down

| binding [1] | binding [2] | binding [3] | binding [4] | Binder |
| --- | --- | --- | --- | --- |
| binds | binds |  |  | MCAK (endogenous, mitotic U2OS cells) (protein, UniProt Q99661 1-725) MAMDSSLQARLFPGLAIKIQRSNGLIHSANVRTVNLEKSCVSVEWAEGGATKGKEIDFDDVAAINPELLQLLPLHPKDNLPLQENVTIQKQKRRSVNSKIPAPKESLRSRSTRMSTVSELRITAQENDMEVELPAAANSRKQFSVPPAPTRPSCPAVAEIPLRMVSEEMEEQVHSIRGSSSANPVNSVRRKSCLVKEVEKMKNKREEKKAQNSEMRMKRAQEYDSSFPNWEFARMIKEFRATLECHPLTMTDPIEEHRICVCVRKRPLNKQELAKKEIDVISIPSKCLLLVHEPKLKVDLTKYLENQAFCFDFAFDETASNEVVYRFTARPLVQTIFEGGKATCFAYGQTGSGKTHTMGGDLSGKAQNASKGIYAMASRDVFLLKNQPCYRKLGLEVYVTFFEIYNGKLFDLLNKKAKLRVLEDGKQQVQVVGLQEHLVNSADDVIKMIDMGSACRTSGQTFANSNSSRSHACFQIILRAKGRMHGKFSLVDLAGNERGADTSSADRQTRMEGAEINKSLLALKECIRALGQNKAHTPFRESKLTQVLRDSFIGENSRTCMIATISPGISSCEYTLNTLRYADRVKELSPHSGPSGEQLIQMETEEMEACSNGALIPGNLSKEEEELSSQMSSFNEAMTQIRELEEKAMEELKEIIQQGPDWLELSEMTEQPDYDLETFVNKAESALAQQAKHFSALRDVIKALRLAMQLEEQASRQISSKKRPQ |
|  |  | binds | no binding | MCAK-His6 (purified full-length MCAK) (enzyme, UniProt Q99661 1-725, looked up) MAMDSSLQARLFPGLAIKIQRSNGLIHSANVRTVNLEKSCVSVEWAEGGATKGKEIDFDDVAAINPELLQLLPLHPKDNLPLQENVTIQKQKRRSVNSKIPAPKESLRSRSTRMSTVSELRITAQENDMEVELPAAANSRKQFSVPPAPTRPSCPAVAEIPLRMVSEEMEEQVHSIRGSSSANPVNSVRRKSCLVKEVEKMKNKREEKKAQNSEMRMKRAQEYDSSFPNWEFARMIKEFRATLECHPLTMTDPIEEHRICVCVRKRPLNKQELAKKEIDVISIPSKCLLLVHEPKLKVDLTKYLENQAFCFDFAFDETASNEVVYRFTARPLVQTIFEGGKATCFAYGQTGSGKTHTMGGDLSGKAQNASKGIYAMASRDVFLLKNQPCYRKLGLEVYVTFFEIYNGKLFDLLNKKAKLRVLEDGKQQVQVVGLQEHLVNSADDVIKMIDMGSACRTSGQTFANSNSSRSHACFQIILRAKGRMHGKFSLVDLAGNERGADTSSADRQTRMEGAEINKSLLALKECIRALGQNKAHTPFRESKLTQVLRDSFIGENSRTCMIATISPGISSCEYTLNTLRYADRVKELSPHSGPSGEQLIQMETEEMEACSNGALIPGNLSKEEEELSSQMSSFNEAMTQIRELEEKAMEELKEIIQQGPDWLELSEMTEQPDYDLETFVNKAESALAQQAKHFSALRDVIKALRLAMQLEEQASRQISSKKRPQ |
